The record followed here is patent publication US8871728B2, “Non-peptide macrocyclic histone deacetylese (HDAC) inhibitors and methods of making and using thereof” (Georgia Tech Research Corporation, priority 2007, dated 2014).

≈ marks a conversion by molar mass, not a printed value.

What all share (assay type): cell-based
Data set [1] can be described thus: Cytotoxicity, Neutral Red assay. Particulars: monkey, Vero cells (monkey kidney fibroblasts). As for the experimental part:
Plasmodium growth inhibition was determined by a parasite lactate dehydrogenase assay using Malstat reagent. Inhibition of viability of the promastigote stage of L. donovani was determined using standard Alamar blue assay, modified to a fluorometric assay. […] To determine selective toxicity index, all compounds were tested against nontransformed mammalian cell lines namely, monkey kidney fibroblasts (Vero) and murine macrophages (J774.1) using Neutral Red assay. Plasmodium growth inhibition was determined by a parasite lactate dehydrogenase assay using Malstat reagent. Inhibition of viability of the promastigote stage of L. donovani was determined using standard Alamar blue assay, modified to a fluorometric assay. Amphotericin B and pentamidine, standard antileishmanial agents; chloroquine and […], standard antimalarial; and suberoylanilide hydroxamic acid (SAHA), standard HDACi were all used as positive controls. To determine selective toxicity index, all compounds were tested against nontransformed mammalian cell lines namely, monkey kidney fibroblasts (Vero) and murine macrophages (J774.1) using Neutral Red assay.

In data set [2] the test system is Plasmodium falciparum (D6 clone), chloroquine-sensitive. The experiment in a line: Plasmodium growth inhibition, parasite lactate dehydrogenase assay (Malstat). The conditions noted are these: D6, read-out: Plasmodium falciparum (D6 clone) IC50 (μg/ml). On the procedure: (§1) The compounds described herein were also evaluated for parasitic activity against Plasmodium falciparum and Leismania donovani. P. falciparum and L. donovani are the causative parasites of malaria and leishmaniasis, two human diseases which constitute a serious threat to public health in tropical and sub-tropical countries. Antimalarial activity was evaluated in vitro using chloroquine-sensitive (D6, Sierra Leone) and chloroquine-resistant (W2, Indochina) strains of P. falciparum. Antileishmanial activity was evaluated in vitro against the promastigote stage of L. donovani.
(§2) Plasmodium growth inhibition was determined by a parasite lactate dehydrogenase assay using Malstat reagent. Inhibition of viability of the promastigote stage of L. donovani was determined using standard Alamar blue assay, modified to a fluorometric assay. […]
(§3) Macrocyclic histone deacetylase inhibitors were evaluated for parasitic activity against Plasmodium falciparum and Leismania donovani. […] Antimalarial activity was evaluated in vitro using chloroquine-sensitive (D6, Sierra Leone) and chloroquine-resistant (W2, Indochina) strains of P. falciparum. Antileishmanial activity was evaluated in vitro against the promastigote stage of L. donovani.
(§4) Plasmodium growth inhibition was determined by a parasite lactate dehydrogenase assay using Malstat reagent. […]

The subject of data set [3] is Plasmodium falciparum (W2 clone), chloroquine-resistant. Described as above. Particulars: W2, read-out: Plasmodium falciparum (W2 clone) IC50 (μg/ml). On the procedure:
as §1, §2, §3, §4

Data set [4] has as its system promastigote stage of L. donovani. In words: Antileishmanial Alamar blue fluorometric assay. Particulars: Leishmania donovani, read-out: Antileshmanial activity IC50 (μg/ml). On the procedure:
as §1, §2, §3, §4
For orientation: Resazurin is reduced to fluorescent resorufin, in cell work by metabolically active cells.

In the case of `O=C(CCCCCCC(=O)Nc1ccccc1)NO` [SAHA, suberoylanilide hydroxamic acid, reference compound], the IC50 in data set [1] was found to be 1.2 µg/mL (≈ 4.54 µM); in data set [2], 0.25 µg/mL (≈ 0.946 µM); in data set [3], 0.47 µg/mL (≈ 1.78 µM); in data set [4] it was 22 µg/mL (≈ 83.2 µM).
